{"source": "patent US8192719B2", "about": "“Methods and kits to diagnose growth hormone deficiency by oral administration of EP 1572 or EP 1573 compounds” (Aeterna Zentaris GmbH, priority 2006, dated 2012)", "origin": "cited, not measured here", "conditions": "route as printed with the test, cited from earlier work; for Specificity: proportion of subjects correctly assessed as not having GHD; for Sensitivity: proportion of subjects correctly diagnosed with GHD", "data": [{"compound": "N=C(N)NCCC[C@H](N)C(=O)O", "note": "[ARG (i.v.), arginine]", "values": [{"measurement": "Specificity", "result": 91, "unit": "%"}, {"measurement": "Sensitivity", "result": 87, "unit": "%"}]}, {"compound": "N[C@@H](Cc1ccc(O)c(O)c1)C(=O)O", "note": "[L-Dopa (p.o.), levodopa]", "values": [{"measurement": "Specificity", "result": 62, "unit": "%"}, {"measurement": "Sensitivity", "result": 100, "unit": "%"}]}]}
